In assay [1] the target is flag-tagged cortactin, wild type (HEK293) (UniProt Q60598). Kind of assay: co-IP; lysates of transfected HEK293 cells immunoprecipitated with Flag tag antibody or control IgG; Western blotting; also after 10 µM PP2 or vehicle (DMSO) for 30 min before lysis.
The target in assay [2] is flag-tagged TyrM-cortactin (Y421, Y466 and Y482 mutated to phenylalanine) (UniProt Q60598). Described as above.
Assay [3] addresses Myc-tagged GluA2, full-length subunit (HEK293) (UniProt P19491). Kind of assay: co-IP; lysates of transfected HEK293 cells immunoprecipitated with Myc tag antibody or control IgG; Western blotting.
Assay [4] concerns the target Myc-tagged GluA1 (HEK293) (UniProt P19490). The assay is described as above.

Protein sequences, listed by entry. Tags and fused reporters are not part of them. Lines headed by an entry give the natural chain unless they say otherwise; changes in a name come on top. Chains listed by the source or under a name are the forms on record and can include a tag or linker. Residues count along the entry.
UniProt Q60598: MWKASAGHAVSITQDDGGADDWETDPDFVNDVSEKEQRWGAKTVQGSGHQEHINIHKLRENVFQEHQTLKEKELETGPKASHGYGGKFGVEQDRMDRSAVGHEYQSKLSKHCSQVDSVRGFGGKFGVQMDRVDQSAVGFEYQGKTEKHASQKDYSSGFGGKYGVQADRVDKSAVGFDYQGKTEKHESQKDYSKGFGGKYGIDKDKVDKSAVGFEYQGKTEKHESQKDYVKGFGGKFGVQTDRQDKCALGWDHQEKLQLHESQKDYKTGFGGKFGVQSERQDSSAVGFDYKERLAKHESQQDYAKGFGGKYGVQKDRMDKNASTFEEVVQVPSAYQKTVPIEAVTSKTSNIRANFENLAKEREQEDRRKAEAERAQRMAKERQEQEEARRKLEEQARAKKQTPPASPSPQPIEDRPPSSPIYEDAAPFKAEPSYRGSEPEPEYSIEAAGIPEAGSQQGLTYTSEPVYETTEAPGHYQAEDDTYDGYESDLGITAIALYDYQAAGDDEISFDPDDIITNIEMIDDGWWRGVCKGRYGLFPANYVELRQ
flag-tagged TyrM-cortactin (Y421, Y466 and Y482 mutated to phenylalanine) (Q60598, form named): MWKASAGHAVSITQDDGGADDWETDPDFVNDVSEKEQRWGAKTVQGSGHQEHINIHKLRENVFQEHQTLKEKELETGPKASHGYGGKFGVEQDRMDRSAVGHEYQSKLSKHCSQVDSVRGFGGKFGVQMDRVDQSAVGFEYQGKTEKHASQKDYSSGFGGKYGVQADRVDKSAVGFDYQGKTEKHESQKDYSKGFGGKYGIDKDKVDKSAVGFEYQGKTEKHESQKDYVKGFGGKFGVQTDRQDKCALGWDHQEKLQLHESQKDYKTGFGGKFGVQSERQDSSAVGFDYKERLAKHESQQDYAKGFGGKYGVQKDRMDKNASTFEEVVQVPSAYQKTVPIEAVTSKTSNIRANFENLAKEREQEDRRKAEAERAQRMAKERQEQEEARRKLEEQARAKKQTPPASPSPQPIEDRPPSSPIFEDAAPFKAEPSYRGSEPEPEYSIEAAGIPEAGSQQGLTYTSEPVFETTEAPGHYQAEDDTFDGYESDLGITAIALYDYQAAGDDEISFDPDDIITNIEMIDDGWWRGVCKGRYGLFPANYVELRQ
UniProt P19491, residues 22-883: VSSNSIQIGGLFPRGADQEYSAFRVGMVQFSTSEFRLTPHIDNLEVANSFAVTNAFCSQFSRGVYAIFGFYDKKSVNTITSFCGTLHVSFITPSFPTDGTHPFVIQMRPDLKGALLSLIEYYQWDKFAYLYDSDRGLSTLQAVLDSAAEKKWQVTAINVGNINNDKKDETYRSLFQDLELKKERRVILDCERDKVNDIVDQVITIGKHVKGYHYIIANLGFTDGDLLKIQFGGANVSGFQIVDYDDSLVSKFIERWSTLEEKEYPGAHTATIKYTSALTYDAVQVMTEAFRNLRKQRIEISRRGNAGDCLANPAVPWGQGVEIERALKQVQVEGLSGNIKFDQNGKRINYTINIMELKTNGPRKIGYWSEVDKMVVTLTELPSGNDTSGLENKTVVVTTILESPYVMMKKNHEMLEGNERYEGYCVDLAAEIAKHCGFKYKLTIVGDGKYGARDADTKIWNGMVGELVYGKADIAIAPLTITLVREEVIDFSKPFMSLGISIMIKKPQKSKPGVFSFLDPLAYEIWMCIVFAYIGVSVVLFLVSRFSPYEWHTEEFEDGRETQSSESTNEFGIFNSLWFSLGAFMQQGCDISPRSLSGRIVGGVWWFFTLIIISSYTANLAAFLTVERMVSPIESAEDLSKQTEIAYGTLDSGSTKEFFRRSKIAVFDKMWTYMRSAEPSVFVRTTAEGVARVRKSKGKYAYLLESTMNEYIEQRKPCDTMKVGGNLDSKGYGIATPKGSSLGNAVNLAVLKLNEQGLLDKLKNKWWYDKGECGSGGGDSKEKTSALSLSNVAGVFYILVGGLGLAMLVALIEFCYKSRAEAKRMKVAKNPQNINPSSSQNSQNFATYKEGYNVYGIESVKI
UniProt P19490, residues 19-907: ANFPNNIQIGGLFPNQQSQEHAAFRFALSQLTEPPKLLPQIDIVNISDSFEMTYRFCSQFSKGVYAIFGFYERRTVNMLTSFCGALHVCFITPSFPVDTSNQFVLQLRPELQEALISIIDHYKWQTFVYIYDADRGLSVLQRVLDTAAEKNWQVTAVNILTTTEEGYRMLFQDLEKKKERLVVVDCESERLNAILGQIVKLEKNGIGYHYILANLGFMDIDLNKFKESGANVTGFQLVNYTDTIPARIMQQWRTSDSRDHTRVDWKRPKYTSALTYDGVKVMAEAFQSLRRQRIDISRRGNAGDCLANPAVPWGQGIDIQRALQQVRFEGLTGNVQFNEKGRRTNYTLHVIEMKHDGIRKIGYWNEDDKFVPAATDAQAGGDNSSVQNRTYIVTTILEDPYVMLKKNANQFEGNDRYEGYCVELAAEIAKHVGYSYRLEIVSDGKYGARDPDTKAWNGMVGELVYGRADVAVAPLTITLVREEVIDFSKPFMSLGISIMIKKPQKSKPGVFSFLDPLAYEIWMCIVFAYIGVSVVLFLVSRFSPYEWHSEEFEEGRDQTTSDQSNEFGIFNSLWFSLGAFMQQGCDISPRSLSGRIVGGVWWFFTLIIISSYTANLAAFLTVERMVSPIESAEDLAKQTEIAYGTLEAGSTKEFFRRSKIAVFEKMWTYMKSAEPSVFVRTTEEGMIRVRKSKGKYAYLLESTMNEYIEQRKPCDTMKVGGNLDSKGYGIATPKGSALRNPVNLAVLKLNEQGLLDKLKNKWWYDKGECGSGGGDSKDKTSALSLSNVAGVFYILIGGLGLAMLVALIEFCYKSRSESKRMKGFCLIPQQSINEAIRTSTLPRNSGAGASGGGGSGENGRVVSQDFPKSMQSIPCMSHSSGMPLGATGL

Here are results for two substances from article PMC5841360.

Results are given in words; binding and its absence hold for the method and conditions named. Binding seen in cells or lysates may run through a third protein. Some results given as binding are weak or reduced against the parent protein; the word gives no strength.

For “Myc-tagged GluA2, full-length subunit (HEK293) (from UniProt P19491 22-883) (receptor)”, the binding result in assay [1] and in assay [2] was “binds” throughout.

With “flag-tagged cortactin, wild type (HEK293) (from UniProt Q60598 1-546)”, the binding result is on record as “binds” in assay [3] and “no binding” in assay [4].
